Laboratory results taken from patent US20050009865A1, “Quinoline derivative as diagnostic probe for disease with tau protein accumulation” (priority 2002, published 2005).
At least one read-out could not be matched to a standard name with certainty. Some compounds share one wording; it may come from a single statement.

assay: Testing of blood-brain barrier permeability; assay type: in vivo; conditions: mice, two minutes after intravenous administration; 0.5 % ID/g or higher believed sufficient

SMILES | blood-brain barrier permeability (assessment in words)
CNc1ccc(-c2ccc3ccccc3n2)cc1 [BF-158, 2-(4-(methylamino)phenyl)quinoline] | extremely high levels of blood-brain barrier permeability
Nc1ccc(-c2ccc3ccccc3n2)cc1 [BF-170, 2-(4-(amino)phenyl)quinoline] | extremely high levels of blood-brain barrier permeability
CCN(CC)c1ccc(-c2ccc3ccccc3n2)cc1 [Compound N-313, 2-(4-(diethylamino)phenyl)quinoline] | extremely high levels of blood-brain barrier permeability
